Data on 58 molecules can be found in PubChem BioAssay AID1487 (National Center for Advancing Translational Sciences (NCATS), 2009).

The structures appear in SMILES notation. Some of the results follow. Shown are side measurements of this screen, not its main read-out; they come without a call. Most of these compounds were active or inconclusive in the main read-out, so they are no random draw. Words in brackets tell the shape of the fitted curve; partial curves, single points and poor fits give uncertain potencies.

The assay can be described thus: qHTS Assay for Modulators of Lamin A Splicing. Particulars: HeLa LMNA splicing GFP/RFP minigene ratio, 48 h. In a few lines: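 S3 HeLa stable clones carrying a lamin A-EGFP splicing minigene plus DsRed2 were seeded at 600 cells/well in Opti-MEM with 2% FBS, pin-dosed and incubated 48 h at 37°C. Acumen cytometry (488 nm) gave the GFP/RFP total-intensity ratio.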
In general terms: qHTS replaces the single test concentration by a dilution series.

The mark [1] stands for this setting: measured here: RFP viability control channel.
The mark [2] stands for this setting: measured here: GFP splicing reporter channel.

As to `N#Cc1ccc(C(=O)NCC(c2ccco2)N2CCCC2)cc1` (configuration not stated), the AC50 (in general, the concentration at which the activity in the assay is half-maximal) under setting [1] was 0.00794 µM [falling, full curve, poor fit].

For the molecule `CCn1c(Cc2ccccc2)nnc1SCC(=O)Nc1ccc2c(c1)OCO2`, under setting [2], the AC50 was 12.6 µM [rising, partial curve].

`COc1cc2c(cc1OC)CN(C(=O)CC1CC3CCC1C3)CC2` (configuration not stated): the AC50 under setting [1] was 35.5 µM [rising, single point].

On to `COc1ccc(C(=O)Nc2ccc(NC(=O)C(C)C)nc2)cc1`, for which the AC50 under setting [1] was 0.631 µM [falling, partial curve].

Regarding `O=C(O)C1Cc2[nH]cnc2C(c2ccccc2O)N1` (configuration not stated), the half-maximal activity concentration (AC50) under setting [2] was 0.0316 µM [falling, partial curve, poor fit].

For `COc1ccc(-n2c(NN)nc3sc4c(c3c2=O)CCCC4)cc1`, the AC50 under setting [2] was 11.2 µM [falling, partial curve].

In the case of `O=C(Nc1ccc(Cl)cc1)Nc1cnccn1`, the AC50 under setting [2] is 3.16 µM [falling, partial curve].

With `Cc1cccc(C)c1NC(=O)c1ccc(-c2ccc(Cl)cc2Cl)o1`, under setting [1], the half-maximal activity concentration (AC50) is 35.5 µM [rising, single point].

On to `CCOC(=O)c1c(NC(=O)c2c(-c3ccccc3)noc2C)sc(C)c1-c1ccccc1`, for which, under setting [1], the AC50 was 0.112 µM [rising, full curve, poor fit].

Regarding `CCOC(=O)c1c(CN(C)C)n(C)c2ccc(OC(C)=O)cc12`, the AC50 under setting [1] is 0.0447 µM [rising, full curve, poor fit].

With `Cc1[nH][nH]c(=O)c1/C=N/N1CCOCC1`, the AC50 under setting [2] was 6.31 µM [falling, single point].

Regarding `CC(C)Cn1c(CNC(=O)c2ccccc2)nc2ccccc21`, the AC50 under setting [1] was 31.6 µM [rising, single point].

Regarding `N/C(Cn1cncn1)=N\OC(=O)c1ccc(Cl)cc1Cl`, the AC50 by setting is: under setting [2], 1.41 µM [rising, full curve]; under setting [1], 3.16 µM [rising, partial curve, poor fit].

Consider `Cc1cc(C)c(NC(=S)N(Cc2cccnc2)Cc2ccco2)c(C)c1`, for which the AC50 under setting [1] is 35.5 µM [rising, single point].

In the case of `COc1ccc(Nc2nc(CC(C)=O)ns2)cc1`, under setting [1], the AC50 is 31.6 µM [rising, single point].

As for `COc1ccc(C/C(O)=C(\C#N)c2nc3ccccc3s2)cc1`, under setting [1], the AC50 is 31.6 µM [rising, single point].

For `Cc1ccc(C(=O)NC(=S)Nc2ccc(N3CCOCC3)cc2)c(C)c1`, the AC50 reads like this: under setting [2], 0.0316 µM [falling, full curve, poor fit]; under setting [1], 0.00316 µM [falling, full curve, poor fit].

Turning to `CCCOc1ccc(NC(=O)C2CC(=O)N/C(=N/N=C(C)/C=C/c3ccc(N(C)C)cc3)S2)cc1` (configuration not stated), the AC50 was 0.1 µM [rising, full curve, poor fit] under setting [2] and 0.0224 µM [rising, full curve, poor fit] under setting [1].

Take `COc1cccc(Cn2c(=O)c(C)nc3cnc(OC)nc32)c1`: the AC50 under setting [2] was 17.8 µM [falling, partial curve].

Take `COc1ccc(-c2csc3nc(-c4ccccc4F)oc(=O)c23)cc1OC`: the AC50 runs as follows: under setting [2], 14.1 µM [falling, single point]; under setting [1], 22.4 µM [falling, single point].

In the case of `C=C(C)c1cccc(C(C)(C)NC(=O)Nc2cc(C)ccn2)c1`, the AC50 under setting [1] is 3.16 µM [rising, single point].

For `COc1ccc(OC)c(S(=O)(=O)Nc2ccc(Oc3ccccc3)cc2)c1`, the AC50 by setting is: under setting [2], 2 µM [rising, full curve]; under setting [1], 5.01 µM [rising, partial curve].

Turning to `Clc1ccccc1N=C1NN=C(c2cccs2)CS1`, the AC50 under setting [1] is 0.01 µM [falling, full curve, poor fit].

`CCCCCCCCOC(=O)C[N+](C)(C)C/C=C(/C)Cl`: the AC50 under setting [1] was 17.8 µM [rising, single point].

Consider `CN(C)Cc1c(O)ccc2oc(Cc3ccccc3)cc12`, for which the AC50 under setting [1] was 8.91 µM [rising, partial curve].

As to `COc1ccc(N2CCN(C(=O)CSc3nnc4c(C)cc5c(C)cc(C)cc5n34)CC2)cc1`, under setting [1], the AC50 is 12.6 µM [rising, partial curve, poor fit].

Regarding `CCC(C)n1c(=S)[nH]c2c(sc3ccc([N+](=O)[O-])cc32)c1=O` (configuration not stated), the AC50 under setting [1] was 5.62 µM [rising, single point].

With `Cc1ccc(NC(=O)C(=O)NCCc2csc3nc(-c4ccccc4C)nn23)cc1Cl`, the AC50 was 0.251 µM [falling, full curve, poor fit] under setting [2] and 0.112 µM [falling, full curve, poor fit] under setting [1].

Consider `O=C(Nc1ccc(S(=O)(=O)N(Cc2ccccc2)c2ccccc2)cc1)c1ccc([N+](=O)[O-])cc1`, for which the AC50 is, setting by setting: under setting [2], 7.94 µM [falling, partial curve, poor fit]; under setting [1], 5.01 µM [falling, partial curve, poor fit].

Regarding `O=[N+]([O-])c1cccc(CSc2ncnc3ccccc23)c1`, under setting [2], the AC50 was 11.2 µM [falling, partial curve].

Regarding `CN1N=C(c2ccc(Cl)cc2)CC(c2ccc(Cl)cc2)C1=O` (configuration not stated), under setting [2], the AC50 was 1.26 µM [rising, single point].

Take `COC(=O)c1ccccc1NC(=O)CN1CCC(NC(=O)c2ccccc2C)CC1`: the AC50 is, setting by setting: under setting [2], 8.91 µM [rising, partial curve, poor fit]; under setting [1], 20 µM [rising, single point].

As to `CCCN(CC(=O)Nc1ccccc1C)C(=O)CCl`, the AC50 by setting is: under setting [2], 7.08 µM [falling, partial curve, poor fit]; under setting [1], 35.5 µM [falling, single point].

On to `CC(Oc1ccc(Br)cc1)C(=O)N1CCc2ccccc21` (configuration not stated), for which, under setting [1], the AC50 was 25.1 µM [rising, single point].

As to `CCOc1ccc(NC(=O)/C(C#N)=C/c2ccc(N3CCCC3)c(C)c2)cc1`, the AC50 runs as follows: under setting [2], 17.8 µM [falling, single point]; under setting [1], 1.78 µM [falling, partial curve, poor fit].

As to `CC(C)CCNC(=O)Nc1cc(C(=O)NCc2cccc(F)c2)ccc1N1CCCC1`, under setting [2], the AC50 is 0.0282 µM [falling, full curve, poor fit].

Regarding `O=c1c2ccccc2sc2nc(C3CCCCC3)n(Cc3ccco3)c(=O)c12`, the AC50 under setting [1] is 35.5 µM [falling, single point].

Regarding `CCOc1cc(S(=O)(=O)NCc2ccc3c(c2)OCO3)ccc1F`, under setting [1], the AC50 was 31.6 µM [rising, single point].

In the case of `CC(C)CC(=O)/C=C/n1c(=S)oc2ccccc21`, under setting [1], the AC50 is 20 µM [rising, single point].

Consider `Cc1ccc(N=Nc2c(O)ccc3n[nH]nc23)cc1`, for which the AC50 was 35.5 µM [falling, single point] under setting [2] and 35.5 µM [falling, partial curve, poor fit] under setting [1].

`Oc1[nH]c2ccccc2c1C=Nc1ccc2c(c1)OCO2`: under setting [1], the AC50 is 20 µM [rising, single point].

In the case of `Cc1ccc(C)c(Cn2c(=O)cc(C)c3c(C)nn(C)c32)c1`, the AC50 reads like this: under setting [2], 10 µM [falling, partial curve]; under setting [1], 15.8 µM [falling, single point].

With `COCCCNC(=O)/C=C1\Sc2ccccc2N(Cc2ccccc2F)C1=O`, the AC50 is 15.8 µM [rising, single point] under setting [2] and 14.1 µM [rising, single point] under setting [1].

In the case of `CCc1c(C)nc(SCC(=O)Nc2cccc(Br)c2)[nH]c1=O`, under setting [1], the AC50 was 22.4 µM [rising, partial curve].

As to `CC[n+]1c(/C=C/Nc2ccccc2)sc2ccccc21`, the AC50 reads like this: under setting [2], 2.82 µM [rising, partial curve, poor fit]; under setting [1], 35.5 µM [rising, single point].

As for `COc1ccc(NC(=O)/C=C\C(=O)N(c2ccc(C(C)C)cc2)C(C(=O)NCc2ccco2)c2ccc(F)cc2)cc1` (configuration not stated), under setting [1], the AC50 is 14.1 µM [rising, partial curve].

On to `O=C(Nc1ccc(Cl)cc1Cl)C1CCC(=O)N1Cc1ccccc1Cl` (configuration not stated), for which the AC50 under setting [1] was 10 µM [rising, partial curve].

Turning to `Cc1cc(N2CCN(C)CC2)nc2ccc(NC(=O)c3ccc(Br)o3)cc12`, the AC50 under setting [1] is 35.5 µM [rising, single point].

As for `COc1ccc(N2CCN(C(=O)c3ccc(C)cc3Cl)CC2)cc1`, the AC50 was 2.82 µM [rising, full curve] under setting [2] and 11.2 µM [rising, partial curve] under setting [1].

Turning to `O=C1c2ccccc2C(=O)c2c1oc(C(F)(F)F)c2C(=O)c1ccccc1`, the AC50 is 3.16 µM [falling, full curve] under setting [2] and 3.55 µM [falling, full curve] under setting [1].

As for `Cc1nc2ccccc2c2nc(NC(=O)C(F)(F)F)nn12`, the AC50 is 0.00501 µM [falling, full curve, poor fit] under setting [2] and 0.00316 µM [falling, full curve, poor fit] under setting [1].

As to `CCc1cccc(C)c1NC(=S)NCc1ccc2[nH]c(C)cc2c1`, the AC50 under setting [1] is 35.5 µM [rising, single point].

Regarding `CS(=O)(=O)N(Cc1ccc(Cl)cc1)c1ccc(C(=O)NCC2CCCO2)cc1` (configuration not stated), the AC50 under setting [2] is 3.98 µM [rising, partial curve].

Take `CCCCn1c(-c2ccco2)n[nH]c1=S`: the AC50 under setting [1] was 0.00708 µM [falling, full curve].

Turning to `CCN1CCN(CCCNC(=O)c2ccc3nc(Cc4ccccc4)oc3c2)CC1`, the AC50 was 4.47 µM [rising, partial curve] under setting [2] and 5.62 µM [rising, single point] under setting [1].

In the case of `CCCC/C(O)=C1\C(=O)CC(C)(C)CC1=Nc1ccccc1OC`, under setting [1], the half-maximal activity concentration (AC50) was 5.01 µM [rising, partial curve].

As to `CC(C)N(C(=O)CSc1nc2ccccc2n1Cc1ccc(F)cc1)C(C)C`, the AC50 under setting [1] was 12.6 µM [rising, partial curve].

In the case of `CC(C)NC(=S)N1CCN(c2ncccn2)CC1`, the AC50 by setting is: under setting [2], 0.0398 µM [falling, full curve, poor fit]; under setting [1], 0.00501 µM [falling, full curve, poor fit].
